Reference: the supplement of paper PMC10849652
Some of the results follow.

The chains behind the UniProt entries cited, without tags or fusion partners. Where a name states a change or a piece, a line headed by the entry shows the natural chain unless it says otherwise.
UniProt Q06587: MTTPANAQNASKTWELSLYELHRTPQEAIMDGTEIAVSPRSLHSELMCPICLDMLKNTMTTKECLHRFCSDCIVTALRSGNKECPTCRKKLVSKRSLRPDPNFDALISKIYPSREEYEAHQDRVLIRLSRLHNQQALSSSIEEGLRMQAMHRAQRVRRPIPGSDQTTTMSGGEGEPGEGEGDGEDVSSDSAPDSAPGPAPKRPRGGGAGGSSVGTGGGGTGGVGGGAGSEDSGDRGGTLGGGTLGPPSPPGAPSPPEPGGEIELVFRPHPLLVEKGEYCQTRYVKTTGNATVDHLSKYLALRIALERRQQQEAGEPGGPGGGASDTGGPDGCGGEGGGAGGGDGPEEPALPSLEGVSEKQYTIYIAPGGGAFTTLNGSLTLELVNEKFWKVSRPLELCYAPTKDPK
UniProt P40937, whole entry, looked up: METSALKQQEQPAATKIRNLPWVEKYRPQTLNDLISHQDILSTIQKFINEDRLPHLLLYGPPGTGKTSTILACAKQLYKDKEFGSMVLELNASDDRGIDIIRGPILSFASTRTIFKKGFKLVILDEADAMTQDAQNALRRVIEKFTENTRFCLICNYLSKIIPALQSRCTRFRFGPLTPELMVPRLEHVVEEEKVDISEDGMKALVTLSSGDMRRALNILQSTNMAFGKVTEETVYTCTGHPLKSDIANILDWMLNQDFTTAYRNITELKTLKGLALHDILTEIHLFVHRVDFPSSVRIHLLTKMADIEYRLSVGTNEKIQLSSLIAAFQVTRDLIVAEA
UniProt Q9BWE0: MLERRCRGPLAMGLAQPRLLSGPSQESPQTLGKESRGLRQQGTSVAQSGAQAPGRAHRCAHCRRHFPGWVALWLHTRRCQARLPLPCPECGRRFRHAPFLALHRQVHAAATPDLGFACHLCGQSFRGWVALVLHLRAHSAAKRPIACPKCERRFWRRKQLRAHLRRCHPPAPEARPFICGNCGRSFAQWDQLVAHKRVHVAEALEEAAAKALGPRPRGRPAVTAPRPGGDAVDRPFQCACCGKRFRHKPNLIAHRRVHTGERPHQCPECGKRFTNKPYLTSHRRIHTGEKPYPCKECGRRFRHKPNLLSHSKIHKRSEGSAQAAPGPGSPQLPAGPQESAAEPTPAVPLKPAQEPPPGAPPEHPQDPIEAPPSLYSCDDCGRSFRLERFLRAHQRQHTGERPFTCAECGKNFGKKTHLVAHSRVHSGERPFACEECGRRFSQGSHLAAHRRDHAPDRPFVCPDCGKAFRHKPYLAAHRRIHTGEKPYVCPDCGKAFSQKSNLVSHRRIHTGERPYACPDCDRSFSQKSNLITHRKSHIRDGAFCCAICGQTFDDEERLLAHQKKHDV
UniProt O43353, whole entry, looked up: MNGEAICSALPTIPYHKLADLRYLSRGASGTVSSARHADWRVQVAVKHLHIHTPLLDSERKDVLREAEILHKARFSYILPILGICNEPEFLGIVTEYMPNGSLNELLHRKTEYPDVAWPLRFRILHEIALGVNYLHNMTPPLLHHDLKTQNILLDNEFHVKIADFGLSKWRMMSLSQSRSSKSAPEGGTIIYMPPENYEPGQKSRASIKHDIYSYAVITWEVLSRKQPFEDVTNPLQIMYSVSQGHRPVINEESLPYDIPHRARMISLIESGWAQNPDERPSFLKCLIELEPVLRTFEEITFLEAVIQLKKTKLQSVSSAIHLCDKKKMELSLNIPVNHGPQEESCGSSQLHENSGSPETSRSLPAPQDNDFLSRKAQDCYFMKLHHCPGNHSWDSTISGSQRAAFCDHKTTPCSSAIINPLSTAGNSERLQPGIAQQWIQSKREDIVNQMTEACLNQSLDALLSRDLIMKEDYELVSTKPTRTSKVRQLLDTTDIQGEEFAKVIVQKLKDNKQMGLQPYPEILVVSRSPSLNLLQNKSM
UniProt Q9ULI2: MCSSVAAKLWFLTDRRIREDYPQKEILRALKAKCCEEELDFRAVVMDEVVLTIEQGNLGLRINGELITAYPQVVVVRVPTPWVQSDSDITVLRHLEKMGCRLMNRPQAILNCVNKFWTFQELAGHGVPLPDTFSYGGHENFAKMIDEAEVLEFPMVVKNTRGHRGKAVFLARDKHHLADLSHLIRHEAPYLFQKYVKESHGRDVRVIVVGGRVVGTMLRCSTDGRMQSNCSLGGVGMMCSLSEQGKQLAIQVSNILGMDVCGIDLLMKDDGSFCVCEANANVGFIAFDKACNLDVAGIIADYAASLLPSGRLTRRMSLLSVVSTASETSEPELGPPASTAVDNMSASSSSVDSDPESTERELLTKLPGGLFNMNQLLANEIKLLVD
UniProt Q96PM5: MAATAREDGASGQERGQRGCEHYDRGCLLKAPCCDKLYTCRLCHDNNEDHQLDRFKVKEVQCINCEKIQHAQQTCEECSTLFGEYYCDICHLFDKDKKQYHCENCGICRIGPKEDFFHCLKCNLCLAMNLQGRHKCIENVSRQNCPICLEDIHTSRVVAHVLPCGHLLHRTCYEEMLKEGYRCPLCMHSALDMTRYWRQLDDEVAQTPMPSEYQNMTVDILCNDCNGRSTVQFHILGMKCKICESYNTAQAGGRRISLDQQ
UniProt P08134, whole entry, looked up: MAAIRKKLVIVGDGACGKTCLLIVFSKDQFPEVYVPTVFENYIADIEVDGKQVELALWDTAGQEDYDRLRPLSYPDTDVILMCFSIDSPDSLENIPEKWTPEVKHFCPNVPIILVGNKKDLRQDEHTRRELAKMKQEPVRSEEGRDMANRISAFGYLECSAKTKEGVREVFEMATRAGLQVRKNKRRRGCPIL
UniProt Q96DB5: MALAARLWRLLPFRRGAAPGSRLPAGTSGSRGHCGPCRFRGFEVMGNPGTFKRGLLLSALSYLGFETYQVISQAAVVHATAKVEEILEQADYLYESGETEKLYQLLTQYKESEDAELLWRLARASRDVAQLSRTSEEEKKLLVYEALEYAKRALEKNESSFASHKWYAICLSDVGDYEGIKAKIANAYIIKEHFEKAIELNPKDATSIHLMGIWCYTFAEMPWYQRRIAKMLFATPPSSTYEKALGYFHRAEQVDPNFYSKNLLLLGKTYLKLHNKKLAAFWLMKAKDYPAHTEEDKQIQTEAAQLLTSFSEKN
UniProt P52758: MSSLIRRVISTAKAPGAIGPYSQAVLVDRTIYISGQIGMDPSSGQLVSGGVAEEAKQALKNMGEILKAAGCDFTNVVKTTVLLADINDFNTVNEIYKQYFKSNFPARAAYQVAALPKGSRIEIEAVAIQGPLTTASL
UniProt Q96NA2: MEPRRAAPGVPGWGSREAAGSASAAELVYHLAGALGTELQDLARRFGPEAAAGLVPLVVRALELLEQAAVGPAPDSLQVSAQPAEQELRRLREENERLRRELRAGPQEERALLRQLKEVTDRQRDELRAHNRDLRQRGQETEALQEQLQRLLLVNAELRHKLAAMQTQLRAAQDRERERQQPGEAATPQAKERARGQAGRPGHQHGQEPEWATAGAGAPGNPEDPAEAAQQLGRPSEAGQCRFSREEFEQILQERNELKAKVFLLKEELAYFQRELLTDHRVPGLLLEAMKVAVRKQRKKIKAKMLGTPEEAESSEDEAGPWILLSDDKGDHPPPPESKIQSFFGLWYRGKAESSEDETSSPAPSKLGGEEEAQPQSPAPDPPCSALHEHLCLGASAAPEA
UniProt Q5TBB1: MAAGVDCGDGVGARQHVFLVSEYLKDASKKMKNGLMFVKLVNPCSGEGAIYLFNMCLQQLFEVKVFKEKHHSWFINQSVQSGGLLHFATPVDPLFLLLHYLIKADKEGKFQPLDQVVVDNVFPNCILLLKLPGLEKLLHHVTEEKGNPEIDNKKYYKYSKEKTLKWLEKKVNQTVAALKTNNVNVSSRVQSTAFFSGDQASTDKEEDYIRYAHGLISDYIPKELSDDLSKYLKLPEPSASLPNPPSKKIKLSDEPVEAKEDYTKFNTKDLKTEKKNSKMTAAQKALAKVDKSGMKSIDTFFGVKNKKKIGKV
UniProt Q9Y580: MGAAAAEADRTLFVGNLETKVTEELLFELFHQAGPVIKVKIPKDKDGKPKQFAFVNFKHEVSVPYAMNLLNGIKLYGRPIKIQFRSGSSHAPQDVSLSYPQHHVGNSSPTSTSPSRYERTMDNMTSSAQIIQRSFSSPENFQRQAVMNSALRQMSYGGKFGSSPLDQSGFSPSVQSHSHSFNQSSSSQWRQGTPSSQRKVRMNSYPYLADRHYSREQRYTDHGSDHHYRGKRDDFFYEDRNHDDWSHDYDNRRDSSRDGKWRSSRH
UniProt P82980: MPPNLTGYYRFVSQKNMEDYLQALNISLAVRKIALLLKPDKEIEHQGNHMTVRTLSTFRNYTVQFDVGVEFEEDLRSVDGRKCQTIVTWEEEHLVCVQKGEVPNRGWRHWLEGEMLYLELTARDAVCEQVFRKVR
UniProt Q8WVD3: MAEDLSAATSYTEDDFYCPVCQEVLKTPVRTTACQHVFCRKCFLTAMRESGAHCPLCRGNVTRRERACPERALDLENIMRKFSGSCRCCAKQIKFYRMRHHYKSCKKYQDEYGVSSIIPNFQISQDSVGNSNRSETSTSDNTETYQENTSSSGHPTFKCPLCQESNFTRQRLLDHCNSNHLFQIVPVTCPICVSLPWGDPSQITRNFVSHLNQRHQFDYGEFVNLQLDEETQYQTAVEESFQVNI
UniProt Q9H871: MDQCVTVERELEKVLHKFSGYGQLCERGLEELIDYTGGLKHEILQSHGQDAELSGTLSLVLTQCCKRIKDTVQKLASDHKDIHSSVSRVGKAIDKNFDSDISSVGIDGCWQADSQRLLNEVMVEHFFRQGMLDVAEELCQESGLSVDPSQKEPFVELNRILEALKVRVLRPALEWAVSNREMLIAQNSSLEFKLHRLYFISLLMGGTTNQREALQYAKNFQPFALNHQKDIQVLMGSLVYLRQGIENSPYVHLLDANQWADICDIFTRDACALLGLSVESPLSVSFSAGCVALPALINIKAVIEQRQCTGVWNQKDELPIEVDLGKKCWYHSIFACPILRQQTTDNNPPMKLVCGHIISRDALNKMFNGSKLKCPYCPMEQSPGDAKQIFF
UniProt O00287: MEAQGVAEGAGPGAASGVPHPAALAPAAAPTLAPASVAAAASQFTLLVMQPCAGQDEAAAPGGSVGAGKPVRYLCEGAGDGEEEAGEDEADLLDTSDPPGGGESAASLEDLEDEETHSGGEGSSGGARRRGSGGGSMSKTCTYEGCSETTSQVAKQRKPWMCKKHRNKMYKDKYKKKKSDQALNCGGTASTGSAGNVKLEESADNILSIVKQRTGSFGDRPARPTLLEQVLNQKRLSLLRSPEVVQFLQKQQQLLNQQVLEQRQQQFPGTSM
UniProt Q6NUK4: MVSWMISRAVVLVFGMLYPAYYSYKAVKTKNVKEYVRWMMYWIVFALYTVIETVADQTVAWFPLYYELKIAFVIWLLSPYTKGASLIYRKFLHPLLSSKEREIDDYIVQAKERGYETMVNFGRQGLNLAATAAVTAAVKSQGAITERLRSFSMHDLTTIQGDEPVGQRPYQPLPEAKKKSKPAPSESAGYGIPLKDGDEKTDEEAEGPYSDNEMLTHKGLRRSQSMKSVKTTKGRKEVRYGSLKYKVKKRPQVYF
UniProt Q9P258, whole entry, looked up: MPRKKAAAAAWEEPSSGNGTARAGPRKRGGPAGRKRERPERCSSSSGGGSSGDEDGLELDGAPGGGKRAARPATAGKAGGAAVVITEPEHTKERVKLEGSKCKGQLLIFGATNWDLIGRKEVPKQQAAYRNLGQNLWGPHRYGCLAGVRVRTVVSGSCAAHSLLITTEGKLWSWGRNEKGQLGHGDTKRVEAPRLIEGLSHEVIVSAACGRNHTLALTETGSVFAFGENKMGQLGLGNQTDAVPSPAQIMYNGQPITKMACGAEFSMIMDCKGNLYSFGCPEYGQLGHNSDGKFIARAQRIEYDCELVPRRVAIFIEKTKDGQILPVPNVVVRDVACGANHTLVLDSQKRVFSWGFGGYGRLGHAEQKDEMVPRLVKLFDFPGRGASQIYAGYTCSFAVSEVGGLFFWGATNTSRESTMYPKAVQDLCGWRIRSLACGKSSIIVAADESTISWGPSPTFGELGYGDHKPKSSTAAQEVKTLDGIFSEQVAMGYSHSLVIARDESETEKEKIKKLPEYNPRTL
UniProt P35250, whole entry, looked up: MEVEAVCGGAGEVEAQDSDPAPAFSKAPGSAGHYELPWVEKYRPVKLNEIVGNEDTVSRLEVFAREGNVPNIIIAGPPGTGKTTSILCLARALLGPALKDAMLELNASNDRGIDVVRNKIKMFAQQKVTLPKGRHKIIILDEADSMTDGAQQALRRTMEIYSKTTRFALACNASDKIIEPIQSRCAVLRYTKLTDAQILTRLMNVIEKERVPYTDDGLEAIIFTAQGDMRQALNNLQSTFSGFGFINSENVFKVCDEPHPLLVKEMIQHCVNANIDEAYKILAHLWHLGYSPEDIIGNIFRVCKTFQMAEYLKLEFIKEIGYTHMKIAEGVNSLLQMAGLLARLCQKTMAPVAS
UniProt Q8TAC1: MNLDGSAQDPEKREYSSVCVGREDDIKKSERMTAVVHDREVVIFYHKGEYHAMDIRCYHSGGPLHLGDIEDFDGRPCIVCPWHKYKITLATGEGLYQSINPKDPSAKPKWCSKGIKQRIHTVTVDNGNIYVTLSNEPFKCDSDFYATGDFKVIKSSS

These targets were tested with CCn1c(C(=O)N(C2CC2)C2CC2)cc2c3c(ncn3C)c(Nc3cc(C)n(C)n3)nc21 (assay: log2 fold change, soluble protein after heating vs DMSO (PISA); higher = thermal stabilisation; K562 cells, 10 uM, 30 min; active = over 0.2 and 3.5 SD of the protein, either way, in both replicates (recomputed)).
Summary of the method: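 K562 cells at 2×10^6 cells/mL were exposed to 10 μM compound for 30 min, then aliquots were heated for 3 min across 48°C-58°C, pooled, and extracted in PBS containing 0.5% NP-40 at 4°C. The supernatant after 21,000xg for 90 min was taken as soluble protein and measured by TMTpro 16plex LC-MS/MS with channel sums equalised. Thermal stability is reported relative to control samples, with values from duplicates. Fold changes are given on a log2 scale.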

log2 fold change, inactive:
RELN (UniProt P78509) 0.051
RING1 (UniProt Q06587) -0.035
RNASE4 (UniProt P34096) 0.015
RBM42 (UniProt Q9BTD8) -0.084
RFC5 (UniProt P40937) 0.019
REPS1 (UniProt Q96D71) 0.143
RFK (UniProt Q969G6) 0.023
RNF126 (UniProt Q9BV68) -0.023
RFFL (UniProt Q8WZ73) -0.013
REPIN1 isoform 4 (UniProt Q9BWE0) -0.059
RIPK2 (UniProt O43353) 0.034
RIMKLB (UniProt Q9ULI2) -0.03
RCHY1 (UniProt Q96PM5) 0.016
RHOG (UniProt P84095) 0.026
RNF181 (UniProt Q9P0P0) -0.023
RHOC (UniProt P08134) -0.03
RMDN1 (UniProt Q96DB5) 0.03
RIDA (UniProt P52758) 0.018
RILP (UniProt Q96NA2) 0.024
RNF20 (UniProt Q5VTR2) -0.006
RNASEH2B (UniProt Q5TBB1) -0.14
RBM7 (UniProt Q9Y580) -0.123
RBP5 (UniProt P82980) -0.229
RNF138 (UniProt Q8WVD3) -0.007
RMND5A (UniProt Q9H871) 0.007
RFC4 (UniProt P35249) -0.026
RFXAP (UniProt O00287) -0.114
RIF1 (UniProt Q5UIP0) 0.152
REEP3 (UniProt Q6NUK4) 0.01
RCCD1 (UniProt A6NED2) -0.017
RCC2 (UniProt Q9P258) 0.011
RFC2 (UniProt P35250) 0.024
RFESD isoform 2 (UniProt Q8TAC1) -0.008

2 records picked at random from those above:
log2 fold change, inactive:
RFXAP (UniProt O00287) -0.114
RNF126 (UniProt Q9BV68) -0.023
